The target of the assay is PHF3-GFP (endogenous PHF3 tagged with GFP) (human (endogenous in HEK293T)) (UniProt Q92576). In words: co-IP.

Protein sequences, listed by entry. Tags and fused reporters are not part of them. Lines headed by an entry give the natural chain unless they say otherwise; changes in a name come on top.
UniProt Q92576: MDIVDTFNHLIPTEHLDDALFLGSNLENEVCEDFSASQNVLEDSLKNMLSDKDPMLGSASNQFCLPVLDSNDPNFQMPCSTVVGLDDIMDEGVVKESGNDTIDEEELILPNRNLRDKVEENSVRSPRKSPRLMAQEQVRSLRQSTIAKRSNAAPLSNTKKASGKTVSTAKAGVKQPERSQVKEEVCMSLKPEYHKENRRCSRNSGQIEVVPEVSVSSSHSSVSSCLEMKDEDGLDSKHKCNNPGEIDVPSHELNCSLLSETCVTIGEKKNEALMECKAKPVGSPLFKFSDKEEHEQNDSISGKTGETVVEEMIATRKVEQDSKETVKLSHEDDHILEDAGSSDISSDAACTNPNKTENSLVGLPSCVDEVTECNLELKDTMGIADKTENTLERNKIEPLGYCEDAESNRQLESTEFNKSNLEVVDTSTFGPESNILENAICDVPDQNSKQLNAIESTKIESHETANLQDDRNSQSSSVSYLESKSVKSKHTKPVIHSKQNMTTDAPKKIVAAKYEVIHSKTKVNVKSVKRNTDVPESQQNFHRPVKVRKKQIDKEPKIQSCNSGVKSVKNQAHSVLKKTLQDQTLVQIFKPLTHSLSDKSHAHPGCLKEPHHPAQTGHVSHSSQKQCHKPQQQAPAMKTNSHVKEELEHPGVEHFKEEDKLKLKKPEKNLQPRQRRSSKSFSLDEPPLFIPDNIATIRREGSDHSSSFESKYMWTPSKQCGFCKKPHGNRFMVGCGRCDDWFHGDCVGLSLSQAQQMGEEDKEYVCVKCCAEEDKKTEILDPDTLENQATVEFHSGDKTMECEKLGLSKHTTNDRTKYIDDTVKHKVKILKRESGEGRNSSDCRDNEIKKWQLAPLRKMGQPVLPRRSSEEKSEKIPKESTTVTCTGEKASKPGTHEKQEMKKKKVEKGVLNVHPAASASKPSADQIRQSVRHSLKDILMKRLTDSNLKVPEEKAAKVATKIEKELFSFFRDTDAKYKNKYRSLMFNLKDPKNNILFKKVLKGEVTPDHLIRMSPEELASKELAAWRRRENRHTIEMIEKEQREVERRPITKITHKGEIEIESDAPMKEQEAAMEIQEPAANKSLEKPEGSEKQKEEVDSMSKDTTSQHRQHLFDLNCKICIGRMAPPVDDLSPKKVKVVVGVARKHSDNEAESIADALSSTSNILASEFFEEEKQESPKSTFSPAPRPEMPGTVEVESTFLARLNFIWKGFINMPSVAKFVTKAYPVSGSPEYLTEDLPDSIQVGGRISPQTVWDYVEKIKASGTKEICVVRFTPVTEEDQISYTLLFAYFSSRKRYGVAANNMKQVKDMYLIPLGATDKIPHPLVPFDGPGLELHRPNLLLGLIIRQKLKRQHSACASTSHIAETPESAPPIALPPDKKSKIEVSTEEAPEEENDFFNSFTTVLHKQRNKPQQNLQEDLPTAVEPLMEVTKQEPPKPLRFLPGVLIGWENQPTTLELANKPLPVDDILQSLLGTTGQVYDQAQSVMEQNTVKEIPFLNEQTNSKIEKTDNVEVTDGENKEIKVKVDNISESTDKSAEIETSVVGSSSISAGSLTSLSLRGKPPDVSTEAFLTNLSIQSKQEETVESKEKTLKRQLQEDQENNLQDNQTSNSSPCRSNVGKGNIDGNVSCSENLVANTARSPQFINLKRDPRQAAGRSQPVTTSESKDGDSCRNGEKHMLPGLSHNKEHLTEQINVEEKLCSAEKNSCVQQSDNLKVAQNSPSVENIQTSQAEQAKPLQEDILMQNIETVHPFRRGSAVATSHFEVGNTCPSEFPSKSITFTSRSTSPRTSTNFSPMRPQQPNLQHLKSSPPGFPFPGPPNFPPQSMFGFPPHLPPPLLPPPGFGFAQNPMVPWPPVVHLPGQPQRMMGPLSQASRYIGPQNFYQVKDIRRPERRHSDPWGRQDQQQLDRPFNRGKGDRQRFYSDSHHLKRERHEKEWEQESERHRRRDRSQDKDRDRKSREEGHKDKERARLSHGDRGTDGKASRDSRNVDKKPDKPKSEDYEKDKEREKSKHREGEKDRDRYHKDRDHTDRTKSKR
UniProt Q9Y5B9: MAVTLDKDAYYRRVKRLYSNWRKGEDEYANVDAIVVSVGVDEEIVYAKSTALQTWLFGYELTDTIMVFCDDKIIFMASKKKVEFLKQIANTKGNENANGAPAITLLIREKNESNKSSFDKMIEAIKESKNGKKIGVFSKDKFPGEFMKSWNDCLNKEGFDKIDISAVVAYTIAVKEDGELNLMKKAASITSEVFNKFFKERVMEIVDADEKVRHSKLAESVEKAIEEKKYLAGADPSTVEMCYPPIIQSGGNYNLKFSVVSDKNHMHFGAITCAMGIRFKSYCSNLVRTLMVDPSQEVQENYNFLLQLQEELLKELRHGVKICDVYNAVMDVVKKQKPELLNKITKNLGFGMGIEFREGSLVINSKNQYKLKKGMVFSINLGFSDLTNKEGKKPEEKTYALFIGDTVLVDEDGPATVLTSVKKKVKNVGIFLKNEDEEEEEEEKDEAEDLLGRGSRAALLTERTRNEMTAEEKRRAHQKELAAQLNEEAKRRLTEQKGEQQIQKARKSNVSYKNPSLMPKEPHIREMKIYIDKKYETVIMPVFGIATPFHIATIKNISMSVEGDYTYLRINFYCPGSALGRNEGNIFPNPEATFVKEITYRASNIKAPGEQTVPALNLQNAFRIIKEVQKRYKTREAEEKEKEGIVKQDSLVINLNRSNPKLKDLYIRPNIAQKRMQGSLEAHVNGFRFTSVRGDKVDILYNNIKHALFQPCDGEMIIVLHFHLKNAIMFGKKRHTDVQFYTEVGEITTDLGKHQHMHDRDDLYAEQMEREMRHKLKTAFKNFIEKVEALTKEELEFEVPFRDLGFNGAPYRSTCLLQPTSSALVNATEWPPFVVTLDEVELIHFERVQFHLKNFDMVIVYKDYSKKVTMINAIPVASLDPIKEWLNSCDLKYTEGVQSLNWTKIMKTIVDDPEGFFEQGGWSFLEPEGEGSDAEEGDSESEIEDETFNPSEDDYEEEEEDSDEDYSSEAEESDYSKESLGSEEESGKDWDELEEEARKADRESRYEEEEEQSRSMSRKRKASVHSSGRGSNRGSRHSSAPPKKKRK
UniProt Q08945: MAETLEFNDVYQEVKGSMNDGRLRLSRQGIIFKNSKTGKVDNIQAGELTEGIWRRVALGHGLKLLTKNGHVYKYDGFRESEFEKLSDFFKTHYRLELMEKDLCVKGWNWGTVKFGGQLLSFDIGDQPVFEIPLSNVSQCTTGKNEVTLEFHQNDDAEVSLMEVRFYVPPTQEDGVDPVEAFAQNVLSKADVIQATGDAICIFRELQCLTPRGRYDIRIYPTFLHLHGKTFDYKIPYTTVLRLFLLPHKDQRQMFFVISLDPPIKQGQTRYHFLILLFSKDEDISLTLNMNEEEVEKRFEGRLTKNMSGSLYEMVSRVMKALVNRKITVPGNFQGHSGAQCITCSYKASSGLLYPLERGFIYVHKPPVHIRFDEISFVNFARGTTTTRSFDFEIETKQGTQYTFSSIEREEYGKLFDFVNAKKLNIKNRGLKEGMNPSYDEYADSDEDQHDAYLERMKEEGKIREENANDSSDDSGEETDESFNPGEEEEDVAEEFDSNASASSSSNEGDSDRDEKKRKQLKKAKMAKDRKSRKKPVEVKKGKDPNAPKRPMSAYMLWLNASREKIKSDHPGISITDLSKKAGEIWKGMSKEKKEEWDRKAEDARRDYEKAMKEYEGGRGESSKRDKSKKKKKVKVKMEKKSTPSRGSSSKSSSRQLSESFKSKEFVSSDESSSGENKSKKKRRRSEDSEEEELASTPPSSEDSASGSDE

These are yes or no findings as the source states them, for the method shown. Binding seen in cells or lysates may run through a third protein. Some entries that bind do so weakly or less than the wild type.

As to “FACT complex (SPT16 and SSRP1) (from UniProt Q9Y5B9;Q08945)”, the binding entry was “binds”.

The values above are taken from article doi:10.1101/2020.02.11.943159 (bioRxiv, 2020).
